Results reported in article doi:10.1101/2024.06.07.596542.
Results are given in words; binding and its absence hold for the method and conditions named. In cells and extracts the contact can be indirect. Some entries that bind do so weakly or less than the wild type.

Protein sequences, listed by entry. Tags and fused reporters are not part of them.
UniProt Q01196: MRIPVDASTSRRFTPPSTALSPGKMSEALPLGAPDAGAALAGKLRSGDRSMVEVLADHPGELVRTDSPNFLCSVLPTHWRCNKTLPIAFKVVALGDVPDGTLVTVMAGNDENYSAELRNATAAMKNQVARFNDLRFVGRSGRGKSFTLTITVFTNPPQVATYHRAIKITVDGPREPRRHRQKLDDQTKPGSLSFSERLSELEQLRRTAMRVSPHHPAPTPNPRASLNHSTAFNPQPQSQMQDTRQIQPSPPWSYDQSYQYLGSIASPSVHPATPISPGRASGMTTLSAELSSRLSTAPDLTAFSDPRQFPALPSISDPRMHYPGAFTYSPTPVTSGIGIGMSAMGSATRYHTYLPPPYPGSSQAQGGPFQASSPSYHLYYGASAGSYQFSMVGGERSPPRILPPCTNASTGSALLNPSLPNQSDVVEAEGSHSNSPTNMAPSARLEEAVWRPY
UniProt P32519: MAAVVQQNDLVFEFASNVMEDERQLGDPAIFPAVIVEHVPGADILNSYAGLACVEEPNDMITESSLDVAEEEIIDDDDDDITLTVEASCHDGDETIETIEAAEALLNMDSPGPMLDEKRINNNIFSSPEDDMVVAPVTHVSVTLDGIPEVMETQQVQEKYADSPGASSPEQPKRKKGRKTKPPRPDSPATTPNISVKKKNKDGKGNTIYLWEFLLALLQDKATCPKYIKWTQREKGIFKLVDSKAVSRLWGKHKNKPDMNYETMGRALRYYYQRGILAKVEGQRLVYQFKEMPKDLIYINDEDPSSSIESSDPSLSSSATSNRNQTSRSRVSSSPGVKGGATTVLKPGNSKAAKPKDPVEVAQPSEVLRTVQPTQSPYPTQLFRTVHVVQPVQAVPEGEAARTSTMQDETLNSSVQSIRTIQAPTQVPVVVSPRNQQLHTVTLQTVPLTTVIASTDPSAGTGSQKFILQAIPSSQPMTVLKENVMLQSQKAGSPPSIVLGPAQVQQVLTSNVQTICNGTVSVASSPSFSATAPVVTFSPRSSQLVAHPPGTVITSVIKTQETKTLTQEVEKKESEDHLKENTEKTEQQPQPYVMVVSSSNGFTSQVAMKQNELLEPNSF

Target: RUNX1 (human (endogenous in CD34+ HSPCs)) (UniProt Q01196)
Assay: co-IP

binding: binds
Substance: ELF1 (from UniProt P32519 1-619)
